Test results as given in paper PMC4552222.
Changes are numbered by the printed parent chain. No constants are given. Whether binding was seen depends on the method and setting. Binding seen in cells or lysates may run through a third protein. Some entries that bind do so weakly or less than the wild type. Sequences can lack the tags named with a protein.

B1: Rgc2-3xHA, P48361 1-1146 (protein)
chain: MSDYFSSRPSQTLTPMGNKPSGGGGGDDASSIHSKSSQYLMDILPDSMTLNESVSSIVANNQAKEFILPETDERSPYFINVPIPKAQPTSTTETKKPLAGDEAIDGQFVKEYPTDILVDRFYKWKKILKGLVIYLREVAYAQEQFARINYQLKGSVKFPFLTDIDETTNTITDPFTTAPRGPKKAQPAQKKVGLTDSEQFQMQMQQEQQENAVQAPTDESKMSLAPHEYKPVQTTESDNTSAASGFVKFGSGSIQDIQVILKKYHLSLANQQFKISKEITSTVIPKLEELRKDLRYKITEIKDLHGDFKTNIGAHIQLTSQLLKKYIAAVKFMNAHGIGNDRASPTNKKPHKLDPKHDPYLLKLQLDLQLKRQVAEETYLQEAFINLQSSGLQLEKIIYTKIQHALLRYSALIDSEARLMIKNMCQELQHGIISKPPAFEWDNFVTQHPSCLLNWKSNDPIPPPRKVSDVIYPHMKSPLAKCIKAGYFLKKSELLPTYHQGYFVLTSNYIHEFQSSDFYNLSSSTPNSTKSSAYSSSVSIADTYANANNAKANNHHRQASDVHNSSTTTGGTAGANGIRGIRKKSYLAPIMSIPLNDCTLKDASSTKFVLVGKPTLNENADVRKSSSSTYLSGSSQASLPKYGHETAKIFSKAPFHKFLKGSKPKNKNTKSSELDQFYAAAQKESNNYVTWTFKIVSPEPSEEELKHFKRWVQDLKNLTSFNDTKDRIKFIEDRVMKSHRFKAGHMSRNSVNIGSHTPCLTDSTFTLQDGTTTSVNLKGRAEKPQYIHIQNNSLADFDGNGFRSKVNTPAIDDYGNLITVERRPAQSPHQYSDYMATSGNTTPSYSSGSRPQSMYNGYNPAVSITSNGMMLQQSTANNNTNPTTNLRHQRNISQTSSLPGFSYTSLSLPVNSPGSSNSESSSGGYFAIPLHGNNNNNNYTQRNSEGSSPCYNDDQIRQQQQPLQMQPLSRTSSSSVNVTAMRSTSAGNSITANAPVVPKVMVNNQNVKTVAADQSATAPSSPTMNSSVTTINRESPYQTLKKTNSTGNVPCLTAEKTHAHPAFYKRGNNSAQNLTTSSSTASRVHPIRKHKKNVSFSSLNSLMFSKKGANHGGNLMTNQFMSGGIQEDDGDSTNNDTIKLNQSIYS
B2: Rgc2-3xHA (protein, UniProt P48361 1-1146)
chain: B1 chain

Tests used:
[1] = target: T1, Fps1-3xFLAG (S. cerevisiae), P23900; assay: co-IP; Fps1-3xFLAG immunoprecipitated from clarified yeast lysate (10 mg protein) with anti-FLAG agarose, 2 hr at 4°C, in TNE+Triton+NP-40 (50 mM Tris-Cl pH 7.5, 150 mM NaCl, 0.5% Triton-X100, 1.0% NP-40); Rgc2 detected by anti-HA immunoblot; details: remark: other sources report otherwise
T1 chain: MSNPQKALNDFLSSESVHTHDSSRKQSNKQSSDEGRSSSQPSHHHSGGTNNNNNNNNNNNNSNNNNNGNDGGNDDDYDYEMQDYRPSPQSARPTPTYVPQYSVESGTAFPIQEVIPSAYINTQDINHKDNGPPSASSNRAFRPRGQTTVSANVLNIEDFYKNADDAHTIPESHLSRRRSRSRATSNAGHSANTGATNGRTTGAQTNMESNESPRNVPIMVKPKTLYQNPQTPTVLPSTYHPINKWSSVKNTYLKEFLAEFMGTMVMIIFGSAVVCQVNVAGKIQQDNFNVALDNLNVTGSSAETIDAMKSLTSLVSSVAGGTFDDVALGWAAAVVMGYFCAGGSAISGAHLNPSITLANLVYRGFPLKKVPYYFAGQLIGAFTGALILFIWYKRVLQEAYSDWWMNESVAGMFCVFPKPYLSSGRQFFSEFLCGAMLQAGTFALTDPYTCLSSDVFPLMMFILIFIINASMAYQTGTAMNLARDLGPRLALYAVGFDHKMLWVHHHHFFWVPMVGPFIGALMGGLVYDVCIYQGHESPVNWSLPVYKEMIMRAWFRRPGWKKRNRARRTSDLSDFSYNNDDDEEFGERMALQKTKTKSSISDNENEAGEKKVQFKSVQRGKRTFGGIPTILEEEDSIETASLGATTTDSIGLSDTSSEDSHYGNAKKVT

[2] = target: T2, Fps1(S181A S185A S570A)-3xFLAG (S. cerevisiae) (UniProt P23900); assay: as above
T2 sequence: T1 chain with S181A, S185A, S570A

| Binder | binding [1] | binding [2] |
| --- | --- | --- |
| B1 | binds | – |
| B2 | – | binds |
